From PMC11271578 come the findings set out here.

Sequences of proteins named here, by UniProt entry; tags and fusion partners are left off.
UniProt Q8NFA0: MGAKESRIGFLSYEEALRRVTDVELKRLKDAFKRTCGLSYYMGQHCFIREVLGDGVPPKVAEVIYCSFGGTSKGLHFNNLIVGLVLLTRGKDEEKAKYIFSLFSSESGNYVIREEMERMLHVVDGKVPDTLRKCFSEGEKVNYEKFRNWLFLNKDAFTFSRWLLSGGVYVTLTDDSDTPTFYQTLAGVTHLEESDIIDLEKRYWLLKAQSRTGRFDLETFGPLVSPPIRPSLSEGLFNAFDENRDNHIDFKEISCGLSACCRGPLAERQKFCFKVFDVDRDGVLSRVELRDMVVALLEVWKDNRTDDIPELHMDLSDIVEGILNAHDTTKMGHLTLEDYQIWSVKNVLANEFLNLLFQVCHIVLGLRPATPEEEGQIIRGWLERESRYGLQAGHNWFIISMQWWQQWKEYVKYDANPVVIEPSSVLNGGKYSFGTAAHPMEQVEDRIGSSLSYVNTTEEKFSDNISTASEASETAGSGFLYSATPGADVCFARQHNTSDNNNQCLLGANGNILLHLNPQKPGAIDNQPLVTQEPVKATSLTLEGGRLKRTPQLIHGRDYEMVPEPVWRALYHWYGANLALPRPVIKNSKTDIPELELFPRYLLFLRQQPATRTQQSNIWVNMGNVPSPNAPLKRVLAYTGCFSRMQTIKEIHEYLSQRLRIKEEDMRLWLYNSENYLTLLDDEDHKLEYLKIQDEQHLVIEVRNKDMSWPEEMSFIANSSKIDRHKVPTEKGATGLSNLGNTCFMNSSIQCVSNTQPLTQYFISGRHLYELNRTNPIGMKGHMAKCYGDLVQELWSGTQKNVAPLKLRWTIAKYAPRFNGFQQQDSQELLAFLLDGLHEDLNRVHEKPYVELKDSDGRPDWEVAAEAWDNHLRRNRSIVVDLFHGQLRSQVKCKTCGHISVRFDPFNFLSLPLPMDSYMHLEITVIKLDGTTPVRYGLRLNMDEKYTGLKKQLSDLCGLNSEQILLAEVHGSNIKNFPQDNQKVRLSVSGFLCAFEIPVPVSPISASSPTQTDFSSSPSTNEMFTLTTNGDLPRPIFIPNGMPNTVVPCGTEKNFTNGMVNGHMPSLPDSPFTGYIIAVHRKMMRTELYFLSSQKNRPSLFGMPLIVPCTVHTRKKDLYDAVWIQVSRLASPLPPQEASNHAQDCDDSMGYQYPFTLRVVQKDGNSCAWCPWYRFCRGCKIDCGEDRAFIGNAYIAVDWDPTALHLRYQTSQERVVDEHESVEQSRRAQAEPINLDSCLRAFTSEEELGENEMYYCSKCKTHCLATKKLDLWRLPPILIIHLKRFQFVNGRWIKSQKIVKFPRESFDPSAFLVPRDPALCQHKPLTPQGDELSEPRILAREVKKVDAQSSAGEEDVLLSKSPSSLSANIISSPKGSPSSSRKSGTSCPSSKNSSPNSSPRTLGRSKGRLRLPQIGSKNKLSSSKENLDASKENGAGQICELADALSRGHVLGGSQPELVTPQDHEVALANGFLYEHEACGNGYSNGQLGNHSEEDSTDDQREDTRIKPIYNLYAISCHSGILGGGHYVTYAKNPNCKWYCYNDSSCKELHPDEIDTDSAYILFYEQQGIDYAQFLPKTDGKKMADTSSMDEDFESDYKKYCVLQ
UniProt O95817: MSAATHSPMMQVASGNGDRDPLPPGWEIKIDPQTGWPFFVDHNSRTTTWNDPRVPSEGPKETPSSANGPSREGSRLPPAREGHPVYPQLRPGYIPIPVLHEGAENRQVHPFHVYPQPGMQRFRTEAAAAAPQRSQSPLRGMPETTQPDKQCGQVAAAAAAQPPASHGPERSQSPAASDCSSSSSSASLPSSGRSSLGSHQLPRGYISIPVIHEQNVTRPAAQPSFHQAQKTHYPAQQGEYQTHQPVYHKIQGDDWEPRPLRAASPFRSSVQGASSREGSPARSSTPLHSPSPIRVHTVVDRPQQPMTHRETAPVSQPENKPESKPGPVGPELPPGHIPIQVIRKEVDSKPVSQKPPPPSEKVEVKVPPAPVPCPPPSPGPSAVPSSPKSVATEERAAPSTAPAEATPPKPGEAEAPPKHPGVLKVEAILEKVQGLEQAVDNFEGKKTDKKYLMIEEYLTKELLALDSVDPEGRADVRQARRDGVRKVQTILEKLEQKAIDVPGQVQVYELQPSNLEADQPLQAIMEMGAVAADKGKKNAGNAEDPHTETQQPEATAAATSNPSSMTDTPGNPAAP

The target in this experiment is Myc-tagged USP32 (ubiquitin-specific peptidase 32) (human) (UniProt Q8NFA0). Briefly: co-IP; HEK293T cells cotransfected with Myc-USP32 and/or Flag-BAG3; weak RIPA lysate; immunoprecipitated with anti-Myc or anti-Flag antibody and protein A/G agarose, 4 °C overnight; immunoblot with anti-Flag or anti-Myc. A general note: In western blotting, separated proteins are transferred to a membrane and probed.

These are yes or no findings as the source states them, for the method shown. In cells and extracts the contact can be indirect. Some results given as binding are weak or reduced against the parent protein; the word gives no strength.

In the case of “Flag-tagged BAG3 (Bcl2-associated athanogene 3) (from UniProt O95817 1-575)”, the binding result is reported as “binds”.
